Data taken from article PMC8041751, “Structural basis for an exceptionally strong preference for asparagine residue at the S2 subsite of Stenotrophomonas maltophilia dipeptidyl peptidase 7” (Scientific Reports, 2021).

System: wild-type SmDPP7
Experiment: Isothermal titration calorimetry of dipeptide binding
Parameters: species or system Stenotrophomonas maltophilia
Settings: ITC, pH 7.0, 25 °C
Method: Figure 6 Thermodynamic parameters of dipeptide binding of SmDPP7. The value of thermodynamic parameters is represented in Table S3. The dissociation constant (Kd) and heats of binding (ΔH) were obtained using MICROCAL PEAQ-ITC Analysis software (Malvern, UK). Gibbs free energy (ΔG) and entropy energy (ΔS) were calculated according to the equation, ΔG = − RT ln Ka = RT ln Kd (Ka = 1/ Kd, association constants). Standard deviations were obtained from three independent experiments.
The bindings were analysed using a MICROCAL PEAQ-ITC microcalorimeter (Malvern, UK). The binding reactions were performed in 50 mM sodium phosphate pH 7.0 and 2.5% dimethyl sulfoxide at 25 °C and were stirred at 750 rpm. A single injection of 0.4 μl and 19 times injections of 2.0 μl of the dipeptide solution were injected into 350 μl of enzyme solution (wild-type SmDPP7). The wild-type SmDPP7 concentration was 25 µM and the concentration of each dipeptide solution was 250 µM in reaction buffer. Each injection was performed for 4 s with an interval of 150 s between injections. The dissociation constant (Kd) and heats of binding (ΔH) were obtained using MICROCAL PEAQ-ITC Analysis software (Malvern, UK). Gibbs free energy (ΔG) values were calculated according to ΔG = − RT ln Ka = RT ln Kd (Ka = 1/ Kd, association constants).

**Q.** How did the ΔH turn out when Tyr-Tyr was run?
**A.** Its ΔH is -12.4 ± 0.3 kcal/mol.

**Q.** And the “-TΔS” value (calculated)?
**A.** The value was 5.32 ± 0.34 kcal/mol.

**Q.** And the ΔG (ΔG = RT ln Kd)?
**A.** Its ΔG is -7.11 ± 0.04 kcal/mol.
